Consider 3 compounds from PMC5601625, “Defining a therapeutic window for kinase inhibitors in leukemia to avoid neutropenia” (Oncotarget, 2017).

For the series, the system named is human peripheral blood neutrophils. As to the kind of experiment: Human neutrophil viability by propidium iodide exclusion, flow cytometry. The following applies: neutrophil IC50 higher than cancer cell line IC50. The procedure:
Figure 3 Assessment of human neutrophil viability in response to kinase inhibitor treatment Human peripheral blood neutrophils from three healthy donors were primed with G-CSF or GM-CSF for 1 hour before addition of selected kinase inhibitors (as shown) or DMSO (control) at concentrations as indicated. Neutrophil viability was assessed after 18 hours of treatment, by propidium iodide exclusion measured by flow cytometry. Mean ± SEM shown.
Donors were 18 years of age or older and had not taken anti-inflammatory medications during the 2 weeks before donating. […] Human neutrophils were then isolated on a three-layer Percoll gradient as described for mouse bone marrow neutrophils as described. […] Neutrophils were resuspended in DMEM/10%FBS, and primed with 10 ng/mL recombinant human G-CSF (Amgen) or 10 ng/mL recombinant human GM-CSF (Leukine, Sargramostim) for 1 h. Compounds or DMSO carrier were added for […]. Viability was assessed by staining neutrophils with propidium iodide and analyzing on a BD Fortessa.
`CC[C@@H]1C(=O)N(C)c2cnc(Nc3ccc(C(=O)NC4CCN(C)CC4)cc3OC)nc2N1C1CCCC1` [(R)-BI-2536]: the “IC50 in human neutrophils relative to cancer cell lines tested” value is recorded as “at least 10 fold”.
As for `NC(=O)Nc1cc(-c2cccc(F)c2)sc1C(=O)N[C@H]1CCCNC1` [AZD7762], the “IC50 in human neutrophils relative to cancer cell lines tested” value was “at least 10 fold”.
In the case of `Cn1c(=O)n(-c2ccc(C(C)(C)C#N)cc2)c2c3cc(-c4cnc5ccccc5c4)ccc3ncc21` [BEZ-235], the “IC50 in human neutrophils relative to cancer cell lines tested” value is “at least 10 fold”.
